Laboratory results taken from patent US20090111753A1, “Nogo-A Polypeptide Fragments, Variant Nogo Receptor-1 Polypeptides, and Uses Thereof” (Yale University, priority 2004, published 2009).
Results are given in words; binding and its absence hold for the method and conditions named. Some results given as binding are weak or reduced against the parent protein; the word gives no strength.

T1: human NgR1 alanine mutant 78, 81 (human) (UniProt Q9BZR6)
T1 sequence: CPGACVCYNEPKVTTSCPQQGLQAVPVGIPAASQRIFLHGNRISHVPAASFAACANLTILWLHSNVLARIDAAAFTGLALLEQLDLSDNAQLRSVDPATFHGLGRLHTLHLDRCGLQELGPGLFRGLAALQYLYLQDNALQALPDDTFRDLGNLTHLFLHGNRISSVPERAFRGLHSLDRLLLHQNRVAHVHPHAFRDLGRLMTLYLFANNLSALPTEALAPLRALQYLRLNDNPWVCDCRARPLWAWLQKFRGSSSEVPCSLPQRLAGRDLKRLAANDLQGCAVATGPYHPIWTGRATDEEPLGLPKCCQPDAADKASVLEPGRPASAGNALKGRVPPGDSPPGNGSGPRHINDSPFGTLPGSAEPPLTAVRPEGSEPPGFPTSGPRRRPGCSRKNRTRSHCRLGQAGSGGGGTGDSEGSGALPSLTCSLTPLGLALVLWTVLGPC

T2: human NgR1 alanine mutant 176 (human) (UniProt Q9BZR6)
T2 sequence: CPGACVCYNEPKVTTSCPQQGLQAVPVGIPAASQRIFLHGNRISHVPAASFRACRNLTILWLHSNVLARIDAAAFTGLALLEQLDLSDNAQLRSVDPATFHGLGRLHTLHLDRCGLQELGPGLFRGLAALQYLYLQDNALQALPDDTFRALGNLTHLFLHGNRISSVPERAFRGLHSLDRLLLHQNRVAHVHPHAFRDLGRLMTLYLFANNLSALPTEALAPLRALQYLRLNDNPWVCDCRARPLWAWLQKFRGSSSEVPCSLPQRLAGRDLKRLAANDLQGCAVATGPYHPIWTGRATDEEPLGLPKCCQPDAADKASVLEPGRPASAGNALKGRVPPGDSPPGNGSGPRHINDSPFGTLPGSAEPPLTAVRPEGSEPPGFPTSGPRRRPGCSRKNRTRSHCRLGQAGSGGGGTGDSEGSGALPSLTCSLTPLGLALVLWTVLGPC

T3: wild type human NgR1 expressed on COS-7 cells (human) (UniProt Q9BZR6)
T3 sequence: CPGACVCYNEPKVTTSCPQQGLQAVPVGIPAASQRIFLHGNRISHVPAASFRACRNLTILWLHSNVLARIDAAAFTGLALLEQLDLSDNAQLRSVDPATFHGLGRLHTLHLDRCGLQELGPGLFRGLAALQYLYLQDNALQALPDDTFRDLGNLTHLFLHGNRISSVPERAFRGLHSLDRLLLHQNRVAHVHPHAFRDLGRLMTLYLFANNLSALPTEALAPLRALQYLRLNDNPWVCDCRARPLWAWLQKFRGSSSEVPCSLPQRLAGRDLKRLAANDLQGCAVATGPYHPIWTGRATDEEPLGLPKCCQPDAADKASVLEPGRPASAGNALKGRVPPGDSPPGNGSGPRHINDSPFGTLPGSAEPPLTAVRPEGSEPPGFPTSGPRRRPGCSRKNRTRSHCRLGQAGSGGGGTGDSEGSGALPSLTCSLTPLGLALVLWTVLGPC

T4: human NgR1 alanine mutant 122 (human) (UniProt Q9BZR6)
T4 sequence: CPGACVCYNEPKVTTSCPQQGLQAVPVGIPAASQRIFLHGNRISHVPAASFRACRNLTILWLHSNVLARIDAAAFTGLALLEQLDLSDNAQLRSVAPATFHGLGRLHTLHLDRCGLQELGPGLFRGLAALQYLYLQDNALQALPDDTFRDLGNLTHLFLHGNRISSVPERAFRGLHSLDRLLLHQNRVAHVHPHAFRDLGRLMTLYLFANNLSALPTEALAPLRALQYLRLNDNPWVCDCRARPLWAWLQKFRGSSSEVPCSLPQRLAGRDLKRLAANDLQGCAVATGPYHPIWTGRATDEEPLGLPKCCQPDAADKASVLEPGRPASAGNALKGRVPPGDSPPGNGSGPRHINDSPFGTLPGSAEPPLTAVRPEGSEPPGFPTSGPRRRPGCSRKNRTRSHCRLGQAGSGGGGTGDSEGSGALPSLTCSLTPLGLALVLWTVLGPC

T5: human NgR1 alanine mutant 61 (human) (UniProt Q9BZR6)
T5 sequence: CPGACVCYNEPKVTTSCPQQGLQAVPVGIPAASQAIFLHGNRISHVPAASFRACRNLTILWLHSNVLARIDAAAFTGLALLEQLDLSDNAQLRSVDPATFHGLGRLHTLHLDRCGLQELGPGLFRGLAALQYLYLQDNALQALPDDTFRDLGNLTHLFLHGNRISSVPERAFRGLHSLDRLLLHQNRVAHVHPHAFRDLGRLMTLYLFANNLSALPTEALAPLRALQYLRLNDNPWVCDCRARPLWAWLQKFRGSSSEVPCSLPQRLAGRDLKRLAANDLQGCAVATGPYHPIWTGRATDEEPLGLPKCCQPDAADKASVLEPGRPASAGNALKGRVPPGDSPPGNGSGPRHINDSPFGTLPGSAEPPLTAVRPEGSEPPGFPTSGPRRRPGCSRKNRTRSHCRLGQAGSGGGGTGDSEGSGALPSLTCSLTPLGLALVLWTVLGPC

T6: human NgR1 alanine mutant 61, 108, 131 (human) (UniProt Q9BZR6)
T6 sequence: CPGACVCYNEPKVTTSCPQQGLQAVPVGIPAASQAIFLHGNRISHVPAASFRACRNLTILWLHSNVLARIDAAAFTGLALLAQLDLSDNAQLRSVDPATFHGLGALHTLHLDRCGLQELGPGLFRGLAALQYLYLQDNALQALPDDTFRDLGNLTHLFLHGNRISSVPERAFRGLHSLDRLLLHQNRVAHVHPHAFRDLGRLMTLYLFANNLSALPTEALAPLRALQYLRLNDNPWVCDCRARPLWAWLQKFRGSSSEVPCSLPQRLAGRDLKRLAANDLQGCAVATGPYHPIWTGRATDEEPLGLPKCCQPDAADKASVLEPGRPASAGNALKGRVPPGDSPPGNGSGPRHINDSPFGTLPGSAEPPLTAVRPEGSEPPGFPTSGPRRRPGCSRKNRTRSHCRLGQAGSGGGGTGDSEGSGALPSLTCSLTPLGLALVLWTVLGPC


How the values were obtained:
Test in all cases: AP-ligand binding, COS-7
[1] = target: T1, human NgR1 alanine mutant 78, 81 (human)
[2] = target: T2, human NgR1 alanine mutant 176 (human)
[3] = target: T3, wild type human NgR1 expressed on COS-7 cells (human)
[4] = target: T4, human NgR1 alanine mutant 122 (human)
[5] = target: T5, human NgR1 alanine mutant 61 (human)
[6] = target: T6, human NgR1 alanine mutant 61, 108, 131 (human)

| binding [1] | binding [2] | binding [3] | binding [4] | binding [5] | binding [6] | Binder |
| --- | --- | --- | --- | --- | --- | --- |
| binds | binds | binds | binds | binds | binds | AP-fused Amino-Nogo fragment B4C (a.a. 950-1018) (ligand, also called AmNg B4C; AP-B4C; not shown: alkaline phosphatase (AP), vector pcAP6) LLPPDVSALATQAEIESIVKPKVLVKEAEKKLPSDTEKEDRSPSAIFSAELSKTSVVDLLYWRDIKKTG |
| binds | binds | binds | binds | binds | binds | AP-Nogo-66 (ligand, UniProt Q9NQC3 1055-1120, looked up, domain: Nogo-66; construct described elsewhere (Fournier 2001); also called AP-Ng66; Ng66; not shown: alkaline phosphatase (AP); construct described elsewhere) RIYKGVIQAIQKSDEGHPFRAYLESEVAISEELVQKYSNSALGHVNCTIKELRRLFLVDDLVDSLK |
